Results taken from the supplement of paper PMC9233669.
Variants at the background level are over-represented here.

Key:
[1] = system: biotinyl-Trp-oxazolone; assay: self-aminoacylation, catalytic enhancement (BWO) (fold over background); higher = more active; k-Seq, kA / k0A0; sequences stand for … in GGGAAUGGAUCCACAUCUACGAAUUC…UUCACUGCAGACUUGACGAAGCUG
Outline: (§1)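 Mutagenized RNA pools (0.43 μM; 21-nt variable region) were treated with 2–1250 μM of each biotinyl-aminoacyl-oxazolone. Conditions were 50 μL HEPES/NaCl/KCl/MgCl2/CaCl2 buffer, 5% acetonitrile, pH 6.9–7.0, room temperature, 90 minutes. Catalytic enhancement, the median kA relative to the uncatalyzed rate, was derived from streptavidin capture, qPCR and Illumina sequencing.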

[2] = system: biotinyl-Leu-oxazolone; assay: self-aminoacylation, catalytic enhancement (BLO) (fold over background); higher = more active; k-Seq, kA / k0A0; sequences stand for … in GGGAAUGGAUCCACAUCUACGAAUUC…UUCACUGCAGACUUGACGAAGCUG
Outline: as §1

[3] = system: biotinyl-Val-oxazolone; assay: self-aminoacylation, catalytic enhancement (BVO) (fold over background); higher = more active; k-Seq, kA / k0A0; sequences stand for … in GGGAAUGGAUCCACAUCUACGAAUUC…UUCACUGCAGACUUGACGAAGCUG
Outline: as §1

[4] = system: biotinyl-Ile-oxazolone; assay: self-aminoacylation, catalytic enhancement (BIO) (fold over background); higher = more active; k-Seq, kA / k0A0; sequences stand for … in GGGAAUGGAUCCACAUCUACGAAUUC…UUCACUGCAGACUUGACGAAGCUG
Outline: as §1

[5] = system: biotinyl-Met-oxazolone; assay: self-aminoacylation, catalytic enhancement (BMO) (fold over background); higher = more active; k-Seq, kA / k0A0; sequences stand for … in GGGAAUGGAUCCACAUCUACGAAUUC…UUCACUGCAGACUUGACGAAGCUG
Outline: as §1

[6] = system: biotinyl-Phe-oxazolone; assay: self-aminoacylation, catalytic enhancement (BFO) (fold over background); higher = more active; k-Seq, kA / k0A0; sequences stand for … in GGGAAUGGAUCCACAUCUACGAAUUC…UUCACUGCAGACUUGACGAAGCUG
Outline: as §1

| Sequence | self-aminoacylation [1] | self-aminoacylation [2] | self-aminoacylation [3] | self-aminoacylation [4] | self-aminoacylation [5] | self-aminoacylation [6] |
| --- | --- | --- | --- | --- | --- | --- |
| AAGUUUGCUAUUAGUCGCACG [Fam3.1 aminoacylation ribozyme variant] | 1.34 | 1.08 | 0.747 | 0.955 | 0.883 | 1.21 |
| AAGUUUGCUAUUAGUCGGAAG [Fam3.1 aminoacylation ribozyme variant] | 1.66 | 0.853 | 0.974 | 0.992 | 1.2 | 0.956 |
| AAGUUUGCUAUUGGUCGCAAG [Fam3.1 aminoacylation ribozyme variant] | 0.66 | 1.05 | 0.76 | 0.787 | 0.756 | 1.46 |
| AAGUUUGCUCAUAGUCACAAG [Fam3.1 aminoacylation ribozyme variant] | 1.07 | 0.777 | 0.95 | 1.02 | 0.978 | 1.62 |
| AAGUUUGCUCAUAGUCGCAAC [Fam3.1 aminoacylation ribozyme variant] | 1.19 | 1.47 | 1 | 1.06 | 1.11 | 1.08 |
| AAGUUUGCUCAUAGUCGCAAU [Fam3.1 aminoacylation ribozyme variant] | 1.41 | 1.33 | 1.15 | 1.53 | 1.52 | 1.78 |
| AAGUUUGCUCAUAGUCGCGAG [Fam3.1 aminoacylation ribozyme variant] | 1.34 | 1.15 | 1.09 | 1.2 | 1.32 | 1.02 |
| AAGUUUGCUCAUGGUCGCAAG [Fam3.1 aminoacylation ribozyme variant] | 0.989 | 0.883 | 0.795 | 0.928 | 0.811 | 1.06 |
| AAGUUUGCUGAUCGUCGCAAG [Fam3.1 aminoacylation ribozyme variant] | 1.31 | 0.714 | 0.838 | 0.788 | 0.781 | 0.662 |
| AAGUUUGCUUAUAGUCCCAAG [Fam3.1 aminoacylation ribozyme variant] | 0.859 | 0.788 | 1.06 | 1.06 | 0.964 | 0.875 |
| AAGUUUGCUUAUAGUCGAAAG [Fam3.1 aminoacylation ribozyme variant] | 0.991 | 0.795 | 0.919 | 0.883 | 0.828 | 0.839 |
| AAGUUUGCUUAUAGUCGCAAA [Fam3.1 aminoacylation ribozyme variant] | 1.67 | 1.42 | 1.31 | 1.47 | 1.38 | 2.38 |
| AAGUUUGCUUAUAGUCGCUAG [Fam3.1 aminoacylation ribozyme variant] | 0.61 | 0.628 | 0.646 | 0.884 | 0.705 | 1 |
| AAGUUUGGUAAUAGUCGCGAG [Fam3.1 aminoacylation ribozyme variant] | 1.65 | 1.61 | 1.51 | 1.98 | 1.56 | 2.51 |
| AAGUUUGGUAAUGGUCGCAAG [Fam3.1 aminoacylation ribozyme variant] | 1.02 | 0.866 | 0.977 | 0.939 | 0.943 | 1.17 |
| AAGUUUGGUAGUAGUCGCAAG [Fam3.1 aminoacylation ribozyme variant] | 0.982 | 0.994 | 0.913 | 0.986 | 0.953 | 1.43 |
| AAGUUUGUUAAUAGUCGCGAG [Fam3.1 aminoacylation ribozyme variant] | 1.57 | 1.52 | 1.14 | 1.39 | 1.5 | 1.35 |
| AAGUUUGUUAAUAGUGGCAAG [Fam3.1 aminoacylation ribozyme variant] | 0.589 | 0.626 | 0.566 | 0.637 | 0.694 | 0.879 |
| AAGUUUGUUAAUAGUUGCAAG [Fam3.1 aminoacylation ribozyme variant] | 0.978 | 0.996 | 0.995 | 1.05 | 1.06 | 1.44 |
| AAGUUUGUUACUAGUCGCAAG [Fam3.1 aminoacylation ribozyme variant] | 1.22 | 1.06 | 1.18 | 1.47 | 1.28 | 1.95 |
| AAUACCCUGGUCAUCGACUGA [Fam2.1 aminoacylation ribozyme variant] | 1.06 | 0.662 | 0.741 | 0.739 | 0.908 | 0.32 |
